# In patent US20260091143A1, “NEAR-INFRARED IMAGING AGENT AND USES THEREOF” (CASE WESTERN RESERVE UNIVERSITY, priority 2022, published 2026):
# Not every detail of the peptide structures is certain; ends, links or a residue may be inferred. Where a SMILES comes first, the peptide text is derived from it. The star is where a group is joined. X1 = CC1(C)C(/C=C/C=C/C=C/C=C2/N(CCCCCC(=O)*)c3ccc4ccccc4c3C2(C)C)=[N+](CCCCS(=O)(=O)[O-])c2ccc3ccccc3c21
# How the values were obtained:
# [1] = tested on: LN-229 glioma flank tumor; test: In vivo fluorescent imaging of tumor signal in LN-229 flank tumor-bearing nude mice; conditions: for p-value, in vivo tumor ROI mean vs. SBK2-CLE-ICG / p-value, in vivo tumor ROI mean vs. Scram-CLE-ICG / p-value, in vivo tumor ROI mean vs. Scram-ICG: 300 nmol/kg both agents, unpaired t-test with Welch's correction
# Excerpt: (§1) All applicable institutional and/or NIH guidelines for the care and use of animals were followed. The Case Western Reserve University Institutional Animal Care and Use Committee reviewed and approved the animal protocols. Outbred homozygous female nude mice (Fox1^nu/Fox1^nu) were purchased from Jackson Laboratory, Bar Harbor, ME, USA. Details of the human glioblastoma LN-229 cell line have been described previously. LN-229 cells express the PTPμ biomarker and have been used in previous studies for evaluating PTPμ-targeted agents using different imaging modalities. Flank tumors were started in the right flank of mice at approximately 7 weeks of age by injecting a mixture of 2×10^6 cells and Matrigel® Matrix (Corning®, Corning Inc., Corning, NY, USA). Experiments were performed in mice 4 to 8 weeks after implanting the tumors.
# (§2) The IVIS Spectrum In vivo Imaging System and Living Image analysis software, (Perkin Elmer, Hopkinton, MA, USA) were used for acquisition and analysis of mouse images. Prior to the experiment, mice were weighed, and baseline images acquired using the appropriate filter sets and the autoexposure setting. Three filter sets for excitation/emission were used: 745 nm/800 nm, 745 nm/820 nm, 745 nm/840 nm. The filter set showing highest fluorescence intensity for a fluorophore was used throughout for that dye. For ICG, 745 nm/820 nm was used and for IRDye® 800CW and Tide Fluor™ 8WS, 745 nm/800 nm was used. Agent stocks were diluted in saline or PBS to ˜100 μM and the volume needed for the desired dose of 300 nmol/kg or 400 nmol/kg calculated. Doses were loaded into polyurethane tubing and connected to a 1 mL syringe as previously described. Mice were anesthetized in an induction chamber with 2% isoflurane-oxygen and moved onto a 37° C. heated platform with a nose cone. 26-gauge veterinary catheters were placed in each tail and the preloaded tubing was connected. Agents were injected over 30 sec, catheters were removed, and animals placed in the prepared Spectrum imaging chamber. Images were acquired beginning 10 min after injecting the agents. For SBK2-CCLE-IR800 and Scram-CCLE-IR800, images were acquired every 10 min for 60 min. For the ICG-labeled and TF8WS-labeled peptides, images were acquired at 10 min, 30 min, 1 h, 2 h, 4 h, 8 h, and 24 h. At the end of the imaging time, the animals were euthanized by CO2 asphyxiation, and the tumor and other organs excised and imaged on the Spectrum.
# (§3) Living Image analysis software was used for region of interest (ROI) analysis of the optical data. Images acquired for each time point consist of a fluorescent image superimposed on a photographic image. Binning was set to 1 and in vivo tumor ROIs were manually drawn based on contours visible in the black and white photograph for each timepoint. After outlining the tumor ROIs, fluorescence was measured with the built-in Spectrum function. For excised tumors, kidneys, spleen and liver, ROIs were drawn around the perimeter of the tumor or organ.
# (§4) LivingImage software measures fluorescence intensity in units of radiant efficiency. For these analyses, average radiant efficiency measurements in (photons/s/cm^2/steradian)/(μW/cm^2) were used for further comparisons to account for differences in tumor and organ size. GraphPad Prism 9 was used for plots and statistical analyses. Where indicated, means for pairs of agents were compared using a two-tailed t-test with Welch's correction and statistical significance was assumed at p<0.05. Welch's correction was used to eliminate assumptions about variance between the groups being compared.
# [2] = tested on: LN-229 glioma flank tumor; test: Ex vivo fluorescence of excised tumors; format: in vivo, mice; conditions: 24 h
# Excerpt: as §1, §2, §3, §4
# [3] = human glioma flank tumors in mice
# [4] = Tumor, ICG-labeled agents 300 nmol/kg, ICG 400 nmol/kg, Welch's t-test
SMILES,time at which fluorescent tumor is apparent/visible ([1]; 300 nmol/kg) [min],"p-value, in vivo tumor ROI mean vs. Scram-CLE-ICG ([1]; 10 min)","p-value, in vivo tumor ROI mean vs. Scram-ICG ([1]; 10 min)","p-value, in vivo tumor ROI mean vs. Scram-CLE-ICG ([1]; 30 min)","p-value, in vivo tumor ROI mean vs. Scram-ICG ([1]; 30 min)","p-value, in vivo tumor ROI mean vs. Scram-CLE-ICG ([1]; 1 h)","p-value, in vivo tumor ROI mean vs. Scram-ICG ([1]; 1 h)","p-value, in vivo tumor ROI mean vs. Scram-CLE-ICG ([1]; 2 h)","p-value, in vivo tumor ROI mean vs. Scram-ICG ([1]; 2 h)","p-value, in vivo tumor ROI mean vs. Scram-CLE-ICG ([1]; 4 h)","p-value, in vivo tumor ROI mean vs. Scram-ICG ([1]; 4 h)","p-value, in vivo tumor ROI mean vs. Scram-CLE-ICG ([1]; 8 h)","p-value, in vivo tumor ROI mean vs. Scram-ICG ([1]; 8 h)","p-value, in vivo tumor ROI mean vs. Scram-CLE-ICG ([1]; 24 h)","p-value, in vivo tumor ROI mean vs. Scram-ICG ([1]; 24 h)","p-value, in vivo tumor ROI mean vs. Scram-CLE-ICG ([1]; BL)","p-value, in vivo tumor ROI mean vs. Scram-ICG ([1]; BL)","p-value, average radiant efficiency of excised tumor vs Scram-CLE-ICG [2, 4]","p-value, average radiant efficiency of excised tumor vs Scram-ICG [2, 4]",also measured
CC(C)C[C@H](NC(=O)[C@@H](NC(=O)[C@H](CC(N)=O)NC(=O)[C@@H](NC(=O)[C@H](CCC(N)=O)NC(=O)[C@H](CCC(=O)O)NC(=O)[C@H](Cc1c[nH]c2ccccc12)NC(=O)[C@H](CC(N)=O)NC(=O)[C@H](Cc1ccccc1)NC(=O)[C@H](CC(=O)O)NC(=O)[C@H](CC(=O)O)NC(=O)CNC(=O)[C@H](CCC(=O)O)NC(=O)CNC(=O)CCCCCN1/C(=C/C=C/C=C/C=C/C2=[N+](CCCCS(=O)(=O)[O-])c3ccc4ccccc4c3C2(C)C)C(C)(C)c2c1ccc1ccccc21)C(C)C)[C@@H](C)O)C(=O)N[C@H](C(=O)N[C@@H](CCCCN)C(=O)N1CCC[C@H]1C(=O)N[C@H](C(=O)N[C@@H](CO)C(=O)N[C@@H](CC(=O)O)C(=O)O)[C@@H](C)O)[C@@H](C)O [SBK2-ICG] (X1-GEGDDFNWEQVNTLTKPTSD-OH),30,<0.001,<0.001,<0.001,<0.001,<0.001,<0.001,<0.001,<0.001,0.003,0.007,<0.001,<0.001,<0.001,<0.001,ns,ns,<0.001,<0.001,"p-value, in vivo tumor ROI mean vs. SBK2-CLE-ICG ([1]; 10 min): ns; p-value, in vivo tumor ROI mean vs. SBK2-CLE-ICG ([1]; 30 min): ns; p-value, in vivo tumor ROI mean vs. SBK2-CLE-ICG ([1]; 1 h): ns; p-value, in vivo tumor ROI mean vs. SBK2-CLE-ICG ([1]; 2 h): ns; p-value, in vivo tumor ROI mean vs. SBK2-CLE-ICG ([1]; 4 h): ns; p-value, in vivo tumor ROI mean vs. SBK2-CLE-ICG ([1]; 8 h): 0.002; p-value, in vivo tumor ROI mean vs. SBK2-CLE-ICG ([1]; 24 h): <0.001; p-value, in vivo tumor ROI mean vs. SBK2-CLE-ICG ([1]; BL): ns; persistence of tumor-specific signal [1, 3]: at least 24 h; time after administration to significantly higher tumor labeling than control agents [1, 3]: ≤ 10 min; excised tumor fluorescence compared to the other agents at the same dose or 400 nmol/kg ICG ([2]; 300 nmol/kg and 400 nmol/kg): significantly higher; ex vivo tumor fluorescence, fold higher than that in the other groups ([2]; 300 nmol/kg): more than 3.5 fold; ex vivo tumor signal, fold higher than the Scam-ICG signal ([2]; 400 nmol/kg): about 1.8 fold; ex vivo tumor fluorescence, fold higher compared to ICG only ([2]; SBK2-ICG 300 nmol/kg): 52 fold; ex vivo tumor fluorescence, fold higher compared to ICG only ([2]; SBK2-ICG 400 nmol/kg): 70 fold; p-value, average radiant efficiency of excised tumor vs SBK2-CLE-ICG [2, 4]: <0.001"
CC(C)C[C@H](NC(=O)[C@@H](NC(=O)[C@H](CC(N)=O)NC(=O)[C@@H](NC(=O)[C@H](CCC(N)=O)NC(=O)[C@H](CCC(=O)O)NC(=O)[C@H](Cc1c[nH]c2ccccc12)NC(=O)[C@H](CC(N)=O)NC(=O)[C@H](Cc1ccccc1)NC(=O)[C@H](CC(=O)O)NC(=O)[C@H](CC(=O)O)NC(=O)CNC(=O)[C@H](CCC(=O)O)NC(=O)CNC(=O)[C@H](CO)NC(=O)CNC(=O)CNC(=O)[C@H](CO)NC(=O)CNC(=O)CNC(=O)CCCCCN1/C(=C/C=C/C=C/C=C/C2=[N+](CCCCS(=O)(=O)[O-])c3ccc4ccccc4c3C2(C)C)C(C)(C)c2c1ccc1ccccc21)C(C)C)[C@@H](C)O)C(=O)N[C@H](C(=O)N[C@@H](CCCCN)C(=O)N1CCC[C@H]1C(=O)N[C@H](C(=O)N[C@@H](CO)C(=O)N[C@@H](CC(=O)O)C(=O)O)[C@@H](C)O)[C@@H](C)O [SBK2-CLE-ICG] (X1-GGSGGSGEGDDFNWEQVNTLTKPTSD-OH),30,<0.001,<0.001,<0.001,<0.001,<0.001,<0.001,0.002,0.001,0.004,0.004,0.029,ns,ns,ns,ns,ns,ns,ns,"tumor remains highly fluorescent out to ([1]; 300 nmol/kg): 4 h; specificity of in vivo tumor labeling ([1]; ICG-conjugated peptide with six amino acid linker): specific in vivo tumor labeling; excised tumor fluorescence compared to Scram-CLE-ICG ([2]; 400 nmol/kg): significantly more fluorescent; p-value, average radiant efficiency of excised tumor vs SBK2-ICG [2, 4]: <0.001"
